Measured values from the supplement of paper PMC9015667.
Where a name gives a salt, the structure may show the parent alone. The list shows a part of the results. Most values come without repeats; read them as rough.

Assays:
Assay in all cases: reduction in cell viability relative to untreated/vehicle; higher = more growth inhibition
Settings in all cases: 200 nM; 72 h
M229P = tested on: M229P (parental melanoma line)
M229R = tested on: M229R (matched melanoma line resistant to BRAF inhibitors)
M238P = tested on: M238P (parental melanoma line)
M238R = tested on: M238R (matched melanoma line resistant to BRAF inhibitors)
M249P = tested on: M249P (parental melanoma line)
M249R = tested on: M249R (matched melanoma line resistant to BRAF inhibitors)
UACC62P = tested on: UACC62P (parental melanoma line)
UACC62R = tested on: UACC62R (matched melanoma line resistant to BRAF inhibitors)

Measured: reduction in cell viability

COc1nccc(-c2c(-c3ccc(F)cc3)ncn2C2CCC(O)CC2)n1 (stereo unspecified)
< 0%: all assays above

FC(F)(F)c1ccc(/C=C/c2nc(COc3ccc(CCCCn4ccnn4)cc3)co2)cc1 [Mubritinib]
3.95%: M229R
< 0%: all other assays above

Cc1ccc([N+](=O)[O-])cc1S(=O)(=O)N(C)/N=C/c1cnc2ccc(Br)cn12
90.4%: M249R
92.5%: UACC62P
86.9%: UACC62R
87.1%: M238P
76.1%: M229P
68.1%: M229R
72.7%: M238R
90.6%: M249P

Cc1cc(C(=O)NOCCO)c(Nc2ccc(I)cc2F)n(C)c1=O
63.5%: UACC62P
14.6%: M229R
34%: M229P
39.6%: M238P
79.5%: M249R
< 0%: M238R
55.1%: UACC62R
79.2%: M249P

O=C(O)c1c(Cl)c(Cl)c(Cl)c(Cl)c1-c1c2cc(I)c(=O)c(I)c-2oc2c(I)c(O)c(I)cc12 [Rose Bengal disodium]
27.8%: UACC62P
< 0%: all other assays above

NC(=O)Cc1cccc(C(=O)c2ccccc2)c1N [Nepafenac]
2.12%: M249P
< 0%: all other assays above

NC[C@H]1O[C@H](O[C@H]2[C@H](O)[C@@H](O[C@H]3O[C@H](CO)[C@@H](O)[C@H](N)[C@H]3O)[C@H](N)C[C@@H]2N)[C@H](O)[C@@H](O)[C@@H]1O [Kanamycin]
< 0%: all assays above

O=C(Nc1ncc(SCCN2CCCC2)s1)[C@]1(c2ccc(S(=O)(=O)C3CC3)cc2)C[C@H]1C1CCCCC1
1.68%: UACC62P
< 0%: all other assays above

CS(=O)(=O)Nc1ccc([N+](=O)[O-])cc1Oc1ccccc1 [Nimesulide]
< 0%: all assays above

O=C(c1ccc(F)cc1)N1CCC[C@H](c2nc(-c3ccc(F)cc3)no2)C1
< 0%: all assays above

CN(C)CCCC1(c2ccc(F)cc2)OCc2cc(C#N)ccc21 (stereo unspecified) [Citalopram hydrobromide]
< 0%: all assays above

Nc1ncnc2c1c(-c1cnc3[nH]ccc3c1)nn2C1CCCC1
21.8%: UACC62R
22.2%: M249R
45.3%: M238R
26.5%: M238P
< 0%: M229P
14.6%: UACC62P
5.01%: M249P
37.2%: M229R

OCCCNc1cc(-c2ccnc(Nc3cccc(Cl)c3)n2)ccn1
97.1%: M238P
79%: M238R
71.4%: M229R
94.6%: M249P
89.3%: UACC62R
85.4%: UACC62P
75.3%: M229P
98%: M249R

CN1C(C(=O)Nc2ccccn2)=C(O)c2ccccc2S1(=O)=O [Piroxicam]
5.07%: M249R
10.3%: M229P
< 0%: all other assays above

COc1cc2nccc(Oc3ccc(NC(=O)Nc4ccc(F)cc4F)c(F)c3)c2cc1OC
4.69%: UACC62P
14.2%: M249P
< 0%: all other assays above

COc1ccc(-c2oc3cc(OC)ccc3c2C(=O)c2ccc(C#N)cc2)cc1
< 0%: all assays above

NC(CO)(CO)CCc1ccc(Sc2cccc(OCc3ccccc3)c2)cc1Cl
4.7%: UACC62P
< 0%: all other assays above

CCS(=O)(=O)N1CC(CC#N)(n2cc(-c3ncnc4[nH]ccc34)cn2)C1 [Baricitinib]
< 0%: all assays above

COC(=O)N[C@H](C(=O)N[C@@H](Cc1ccccc1)[C@@H](O)CN(Cc1ccc(-c2ccccn2)cc1)NC(=O)[C@@H](NC(=O)OC)C(C)(C)C)C(C)(C)C [Atazanavir sulfate]
< 0%: all assays above

COc1ccc(-c2ccc3c(N4CCOC[C@@H]4C)nc(N4CCOC[C@@H]4C)nc3n2)cc1CO
54.1%: M238R
64.1%: M249R
60.4%: M238P
68.8%: UACC62P
65.4%: M249P
55.9%: M229P
43.2%: M229R
66.1%: UACC62R

O=C(O)C1(C(=O)O)CCC1.[NH2-].[NH2-].[Pt+2] [Carboplatin]
13.8%: M249P
< 0%: all other assays above

COc1cc2/c(=N/c3ccc(Br)cc3F)nc[nH]c2cc1OCC1CCN(C)CC1 [Vandetanib]
< 0%: all assays above

N=C(N)c1ccc(OCCCCCOc2ccc(C(=N)N)cc2)cc1 [Pentamidine isethionate]
< 0%: all assays above

O=C(/C=C/c1cccc(S(=O)(=O)Nc2ccccc2)c1)NO [Belinostat]
0.03%: M229P
30.7%: M229R
48.4%: UACC62R
< 0%: M238R
1.08%: M249P
6.08%: UACC62P
17.2%: M249R
8.29%: M238P

NCCCCNCCCN [Spermidine]
1.16%: M238P
< 0%: all other assays above

C[C@@H](O[C@H]1OCCN(Cc2n[nH]c(=O)[nH]2)[C@H]1c1ccc(F)cc1)c1cc(C(F)(F)F)cc(C(F)(F)F)c1 [Aprepitant]
1.5%: UACC62P
< 0%: all other assays above

CCNC(=O)Nc1ccc2ncc(Nc3ccc(C)cc3)nc2n1
5.62%: UACC62P
12.6%: M249R
< 0%: all other assays above

CNC(=O)c1ccccc1Nc1nc(Nc2ccc(N3CCOCC3)cc2OC)ncc1Cl
17.9%: M238P
26.7%: M229R
3.32%: UACC62R
0.14%: M229P
< 0%: all other assays above

CN(N=O)C(=O)N[C@@H](C=O)[C@@H](O)[C@H](O)[C@H](O)CO [Streptozocin]
< 0%: all assays above

CC(C)n1cnc2c(NCCc3ccc(O)cc3)nc(-c3csc4ccccc34)nc21 [StemRegenin 1]
14.5%: UACC62P
< 0%: all other assays above

N#C/C(=C(/N)Sc1ccc(N)cc1)c1ccccc1C(F)(F)F
4.2%: M249P
< 0%: all other assays above

CC1(COc2ccc3c(c2)ncn3-c2ccc3cccc(N4CCC(N)CC4)c3n2)COC1 [Crenolanib]
< 0%: all assays above

COc1cc(C(=O)NC2CCN(C)CC2)ccc1Nc1ncc2c(n1)N(C1CCCC1)CCC(=O)N2C(C)C
9.56%: UACC62R
< 0%: all other assays above

COCC(=O)NC/C=C/c1ccc2ncnc(Nc3ccc(Oc4ccc(C)nc4)c(C)c3)c2c1
< 0%: all assays above

COc1ccc(-c2nc3cc(C4=NNC(=O)CC4C)ccc3[nH]2)cc1 (stereo unspecified) [Pimobendan hydrochloride]
< 0%: all assays above

Of the compounds above, these have fluorine:
COc1nccc(-c2c(-c3ccc(F)cc3)ncn2C2CCC(O)CC2)n1 (stereo unspecified)
< 0%: all assays above

FC(F)(F)c1ccc(/C=C/c2nc(COc3ccc(CCCCn4ccnn4)cc3)co2)cc1 [Mubritinib]
3.95%: M229R
< 0%: all other assays above

Cc1cc(C(=O)NOCCO)c(Nc2ccc(I)cc2F)n(C)c1=O
63.5%: UACC62P
14.6%: M229R
34%: M229P
39.6%: M238P
79.5%: M249R
< 0%: M238R
55.1%: UACC62R
79.2%: M249P

O=C(c1ccc(F)cc1)N1CCC[C@H](c2nc(-c3ccc(F)cc3)no2)C1
< 0%: all assays above

CN(C)CCCC1(c2ccc(F)cc2)OCc2cc(C#N)ccc21 (stereo unspecified) [Citalopram hydrobromide]
< 0%: all assays above

COc1cc2nccc(Oc3ccc(NC(=O)Nc4ccc(F)cc4F)c(F)c3)c2cc1OC
4.69%: UACC62P
14.2%: M249P
< 0%: all other assays above

COc1cc2/c(=N/c3ccc(Br)cc3F)nc[nH]c2cc1OCC1CCN(C)CC1 [Vandetanib]
< 0%: all assays above

C[C@@H](O[C@H]1OCCN(Cc2n[nH]c(=O)[nH]2)[C@H]1c1ccc(F)cc1)c1cc(C(F)(F)F)cc(C(F)(F)F)c1 [Aprepitant]
1.5%: UACC62P
< 0%: all other assays above

N#C/C(=C(/N)Sc1ccc(N)cc1)c1ccccc1C(F)(F)F
4.2%: M249P
< 0%: all other assays above

Next part

COc1ccccc1N1CCN(CCN(C(=O)C2CCCCC2)c2ccccn2)CC1
13.1%: UACC62P
< 0%: all other assays above

C[C@]12CCC(=O)C=C1CC[C@@H]1[C@@H]2[C@@H](O)C[C@@]2(C)[C@H]1CC[C@]2(O)C(=O)CO [Hydrocortisone]
< 0%: all assays above

CCn1cc(C(=O)O)c(=O)c2cc(F)c(N3CCN(C)CC3)cc21 [Pefloxacin]
< 0%: all assays above

C=CC(=O)Nc1cc2c(Nc3ccc(F)c(Cl)c3)ncnc2cc1C#CC(C)(C)N1CCN(C)CC1
5.93%: M238R
10.6%: M238P
19.9%: M229R
2.82%: UACC62R
9.79%: M229P
< 0%: all other assays above

CCCCCNC(=N)N/N=C/c1c[nH]c2ccc(OC)cc12 [Tegaserod maleate]
< 0%: all assays above

CC(C)C(=O)Oc1ccc(CO)cc1[C@H](CCN(C(C)C)C(C)C)c1ccccc1 [Fesoterodine fumarate]
< 0%: all assays above

COc1ccc(CC2SC(=O)NC2=O)cc1C(=O)NCc1ccc(C(F)(F)F)cc1 (stereo unspecified)
24.8%: M238P
< 0%: all other assays above
